Among all 400,000 compounds or so, about 13,000 (3.2%) were called active. Inconclusive results, whose numbers are uncertain, are shown with a selection of clear calls. The call rests on the fitted dose curve; in most records, active means well fitted cell-killing curve with a large enough effect; inconclusive means small, poorly fitted or top-dose-only effect, or effect the other way; inactive means flat fitted curve, though single readings scatter. Where the call is inconclusive, the potency comes from a doubtful curve fit.
Test: qHTS assay for MDR1-selective chemotherapeutics: Primary screen using the drug-selected MDR subline cells KB-V1; further: nearly all actives have a fitted effect of over 60% in size
Details: KB-V1 MDR cells viability, CellTiter-Glo, 72 h; activity change, negative = cytotoxicity: at 46.1 µM (top of the series)
Summary of the method: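 In this primary screen, KB-V1 cells overexpressing P-gp are incubated with library compounds (lowest to highest concentration) for 72 h at 37 degrees C before a luminescent ATP viability read.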
On the % scale 0 is the no-effect control and ±100 the full control effect; potency means the concentration at half of the fitted maximal effect.

Compound | activity change, negative = cytotoxicity | Potency
COc1ccc(Br)cc1C(=O)Nc1cccc(C)c1C | inconclusive: -30.9% [cytotoxic] | 
Cc1nc2ccccc2nc1N/N=C/c1ccc(O)cc1O |  | inconclusive: 8.2 µM [cytotoxic, partial curve, poor fit]
O=C(CN(c1ccc(Cl)c(C(F)(F)F)c1)S(=O)(=O)c1ccccc1)N/N=C/c1cccc2c1OCCO2 |  | inconclusive: 32.6 µM [cytotoxic, single point]
CCn1c(=O)c2cc(S(=O)(=O)NCc3ccccc3)ccc2n(CC)c1=O |  | active: 14.6 µM
O=C(CN1C(=O)CSCC1=O)Nc1ccc2c(c1)OCO2 |  | inconclusive: 29.1 µM [rising, single point]
Cc1ccc2nc(/C(C#N)=C/c3ccc(O)c(O)c3)[nH]c2c1 |  | inactive
Cc1ccc(-n2ncc(C(=O)Nc3ccc4c(c3)OCCO4)c2C2CCN(C(=O)OC(C)(C)C)CC2)cc1 |  | inactive
CCCCN1C(=O)C(NC(=O)C2CC2)(C(F)(F)F)C2=C1CC(C)(C)CC2=O (stereo unspecified) |  | inconclusive: 18.4 µM [cytotoxic, partial curve]
Cc1nnc(SCc2cccc(Oc3ccccc3)c2)n1N |  | inconclusive: 20.6 µM [cytotoxic, partial curve, poor fit]
CCN1CCN(c2csc3ccc(C)cc3c2=O)CC1 |  | inconclusive: 29.1 µM [rising, single point]
O=C(NCc1ccncc1)C1Cc2c(-c3ccccc3Oc3ccccc3)ccnc2O1 (stereo unspecified) |  | inactive
Cc1cc(C)nc(-n2nc(C)cc2NC(=O)CN2CCc3ccccc3C2)n1 |  | inconclusive: 20.6 µM [cytotoxic, partial curve, poor fit]
CC1CCN(S(=O)(=O)c2ccc3c(c2)oc(=O)n3CC(=O)NC(C)c2ccccc2)CC1 (stereo unspecified) |  | inactive
Cc1ncoc1C(=O)NCCC(c1ccccc1)c1ccccc1 |  | inconclusive: 18.4 µM [cytotoxic, single point]
Cc1ccc(C(=O)Nc2ncc(Cc3ccc(SC(F)F)cc3)s2)cc1 |  | active: 1.03 µM
O=C(Nc1nc2c(s1)CCCC2)c1ccc(S(=O)(=O)N2CCCc3ccccc32)cc1 |  | active: 2.59 µM
COc1ccc(CN2C(=O)c3ccccc3C2OC)cc1 (stereo unspecified) |  | inactive
COc1ccc(OCC(=O)N2CCN(c3nnc(-c4ccccc4)c4ccccc34)CC2)cc1 |  | active: 2.59 µM
Cc1nc(N2CCCCC2)[nH]c(=O)c1CN(C)N=O |  | inactive
Cc1c(OCC(=O)N(C)c2ccccc2)ccc2c3c(c(=O)oc12)CCC3 |  | active: 9.2 µM
O=C(CCc1ccc(O)c(O)c1)NNC(=S)Nc1ccc(Br)cc1Cl |  | inactive
CCOC(=O)c1cnc2ccc(OC)cc2c1NCCc1ccc(OC)c(OC)c1 |  | inconclusive: 1.84 µM [cytotoxic, full curve]
Cc1ccc(N2C(=O)CC(Sc3nc(C)cc(C)n3)C2=O)cc1 (stereo unspecified) |  | inconclusive: 6.51 µM [cytotoxic, partial curve]
COc1cccc(OC)c1C(=O)Nc1ccc(C)cc1C(=O)c1ccccc1 |  | inconclusive: 8.2 µM [cytotoxic, partial curve]

Compound | activity change, negative = cytotoxicity | Potency
CC(=O)c1nc(N2C(=O)CC(Cc3cc(C)cc(C)c3)C2=O)sc1C (stereo unspecified) |  | inconclusive: 16.4 µM [rising, single point]
CNc1c(NC(=O)c2cc(OC)cc(OC)c2)c(=O)oc2ccccc12 |  | inactive
CCC(=O)N(CC)c1nc(-c2cc(OC)ccc2OC)cs1 |  | inconclusive: 16.4 µM [cytotoxic, single point]
CCC(=O)c1ccc(OCC(=O)OCC(=O)N2c3ccccc3CC2C)cc1 (stereo unspecified) |  | inactive
CC(C)(C)Nc1nc(-c2ccc3c(c2)CCN3C(=O)C2CC2)cs1 |  | inconclusive: 14.6 µM [cytotoxic, partial curve]
COc1cc(C2=NOC(C(=O)NCc3cccs3)C2)cc(OC)c1OC (stereo unspecified) |  | active: 2.59 µM
Cc1ccc(N2C(=O)C(NC(=O)c3ccccc3F)(C(F)(F)F)C3=C2CC(C)(C)CC3=O)cc1 (stereo unspecified) |  | inconclusive: 0.461 µM [cytotoxic, full curve, poor fit]
CCc1ccc(C(=O)CSC2=C(C#N)C(c3ccco3)C(C(C)=O)=C(C)N2)cc1 (stereo unspecified) |  | inactive
O=C1C=CC2(O[C@H](c3ccccc3)[C@@H](c3ccccc3)O2)[C@H](Sc2ccccc2O)C1 |  | inconclusive: 1.84 µM [cytotoxic, full curve, poor fit]
Cc1ccc2cc(CN(Cc3nnnn3C3CCCCC3)CC3CCCO3)c(=O)[nH]c2c1 (stereo unspecified) |  | inactive
Cc1cc(NC(=O)COC(=O)C2CCN(S(=O)(=O)c3ccc(Cl)cc3)CC2)no1 |  | inactive
Cc1cc(S(=O)(=O)N(Cc2ccccc2F)C2CC2)ccc1-n1cnnn1 |  | inconclusive: 23.1 µM [cytotoxic, partial curve, poor fit]
Cc1ccc(C)c(CN2C(=O)CSc3ccc(C(=O)NCC(C)CN4CCC(C)CC4)cc32)c1 (stereo unspecified) |  | inconclusive: 4.11 µM [cytotoxic, full curve]
COC(=O)[C@]1(C)CCC[C@@]2(C)C3CC[C@@]4(C)C[C@]3(CCC21)CC(=O)N4Cc1ccc(OC)cc1 (stereo partly specified) |  | inactive
COc1ccc(N2CCN(C(=O)c3sc4ncn(CC(=O)N5CCCCC5C)c(=O)c4c3C)CC2)cc1 (stereo unspecified) |  | inconclusive: 0.461 µM [cytotoxic, partial curve, poor fit]
CN(Cc1cncn1C)c1ncnc2ccc(-c3ccc4c(c3)OCO4)cc12 |  | inactive
CC(=O)N1CCN(c2ccc(NCc3cccc(C)c3)cc2)CC1 |  | inconclusive: 20.6 µM [cytotoxic, partial curve, poor fit]
O=C(Cn1nc(C(F)(F)F)c2c1CCC2)NCc1ccc(F)cc1 |  | active: 11.6 µM
O=C(NCc1ccc(F)cc1)C1CCC(CNS(=O)(=O)c2cccs2)CC1 (stereo unspecified) |  | inconclusive: 4.11 µM [cytotoxic, partial curve]
COc1cccc(-c2ccc(SCC(=O)N3CCN(c4ccccc4)CC3)nn2)c1 |  | active: 14.6 µM
COCCN=C1Sc2nc3c(C)cccc3cc2CN1Cc1ccco1 |  | inconclusive: 13 µM [cytotoxic, single point]
COc1ccc(S(=O)(=O)Oc2ccccc2C(N)=O)cc1 |  | inactive
Cc1cccc(S(=O)(=O)NC(Cc2c[nH]c3ccccc23)C(=O)O)c1 (stereo unspecified) |  | inactive
COc1cccc(/C=N/NC(=O)c2cccc3ccccc23)c1 |  | inactive

Compound | activity change, negative = cytotoxicity | Potency
COc1cc(NC(=O)Nc2nnc([C@@H]3C[C@H](O)[C@@H](CO)O3)s2)cc(OC)c1OC |  | inactive
CC(OCC(O)CN(C)CCOc1ccccc1)c1ccc(Cl)cc1 (stereo unspecified) |  | active: 16.4 µM
COc1ccc(Cl)cc1NC(=O)CNc1ccccc1CN(C)C1CCCCC1 |  | inconclusive: 0.58 µM [cytotoxic, partial curve, poor fit]
O=C(/C=C/c1ccc(F)cc1)N1CCN(c2ncccn2)CC1 |  | inconclusive: 16.4 µM [cytotoxic, partial curve, poor fit]
CSc1ccccc1CNC(=O)C1(C)CCCN1CC(C)C (stereo unspecified) |  | inactive
CCCCn1c(=O)[nH]c(=O)c2c1nc(-c1ccc(C)c([N+](=O)[O-])c1)n2CC |  | inconclusive: 2.91 µM [cytotoxic, partial curve]
CCCn1c(SCc2nc(-c3cc(OC)ccc3OC)no2)nnc1-c1ccc(Cl)cc1 |  | inconclusive: 3.26 µM [cytotoxic, partial curve]
COc1ccc(C2c3ccc(O)cc3Oc3ncn(CCN4CCOCC4)c(=N)c32)cc1 (stereo unspecified) |  | inactive
O=C1NCc2c1c1c3ccccc3[nH]c1c1[nH]c3ccccc3c21 |  | inactive
O=C(c1ccc(Br)cc1)N1CCN(Cc2ccccc2)CC1 |  | inconclusive: 10.3 µM [cytotoxic, partial curve]
COc1cc(NS(=O)(=O)c2ccc(N/C=C(\C=O)c3nc4ccccc4o3)cc2)nc(OC)n1 |  | inactive
CCCCC(C)n1[nH]c(=O)c2c(C)cc(C)nc21 (stereo unspecified) |  | inconclusive: 11.6 µM [cytotoxic, partial curve, poor fit]
CCN1C(N(C)CCc2c[nH]c3ccccc23)=N[C@@H](c2cccc(C(F)(F)F)c2)C(C(=O)OC)=C1C |  | inconclusive: 29.1 µM [cytotoxic, single point]
OCC1(CCOc2ccccc2)CCN(Cc2nc3ccc(F)cc3[nH]2)CC1 |  | inconclusive: 20.6 µM [cytotoxic, single point]
N#Cc1c(SCc2ccc(Cl)cc2)sc(C(=O)c2ccccc2)c1N |  | inconclusive: 13 µM [cytotoxic, partial curve]
CN(C)C(CNC(=O)CSc1nc2ccccc2c(=O)n1Cc1ccco1)c1ccccc1 (stereo unspecified) |  | inconclusive: 1.64 µM [cytotoxic, full curve]
O=C(Nc1ccccc1)c1cc(C2CCCCN2C(=O)CCc2ccccc2)on1 (stereo unspecified) |  | inactive
CCOC(=O)c1oc2cccc(OCC(O)CNC(C)C)c2c1C (stereo unspecified) | inconclusive: -36.8% | 
COCc1c(C(=O)Nc2cccc(S(=O)(=O)N3CCCCC3)c2)oc2ccccc12 |  | inconclusive: 29.1 µM [cytotoxic, single point]
CN(c1ccc(O)cc1)c1nc(-c2cccs2)cs1 |  | inconclusive: 18.4 µM [cytotoxic, single point]
O=C(NC1CCCC1)C(C1CC1)n1c(-c2cc3ccccc3[nH]2)nc2ccccc21 (stereo unspecified) |  | inconclusive: 6.51 µM [cytotoxic, partial curve]
Cc1ccc(-n2c(N)c(C(=O)N3CCOCC3)sc2=S)c(C)c1 |  | inconclusive: 16.4 µM [cytotoxic, partial curve]
COc1ccc(/C=C2\SC(=S)N(CC(=O)N(C)C3CCS(=O)(=O)C3)C2=O)cc1 (stereo unspecified) |  | inactive

Part of the list above in a different format.
COc1ccc(Cl)cc1NC(=O)CNc1ccccc1CN(C)C1CCCCC1
  Potency: inconclusive: 0.58 µM [cytotoxic, partial curve, poor fit]
O=C(/C=C/c1ccc(F)cc1)N1CCN(c2ncccn2)CC1
  Potency: inconclusive: 16.4 µM [cytotoxic, partial curve, poor fit]
CSc1ccccc1CNC(=O)C1(C)CCCN1CC(C)C (stereo unspecified)
  Potency: inactive

From PubChem BioAssay AID1347076 (National Center for Advancing Translational Sciences (NCATS), 2019)
